Assay results from the supplement of paper PMC10849652.
The list shows a part of the results.

Chains of the proteins cited; added tags and fusions are not shown. Lines headed by an entry give the natural chain unless they say otherwise; changes in a name come on top.
UniProt P60660, whole entry, looked up: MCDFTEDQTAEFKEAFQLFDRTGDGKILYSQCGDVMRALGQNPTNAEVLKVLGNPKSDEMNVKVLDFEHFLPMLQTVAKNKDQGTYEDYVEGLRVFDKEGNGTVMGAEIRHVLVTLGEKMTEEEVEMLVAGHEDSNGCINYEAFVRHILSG
NBDY, A0A0U1RRE5, UniProt A0A0U1RRE5, whole entry, looked up: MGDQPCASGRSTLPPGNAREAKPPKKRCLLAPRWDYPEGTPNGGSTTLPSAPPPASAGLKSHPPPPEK
UniProt Q9Y2A7: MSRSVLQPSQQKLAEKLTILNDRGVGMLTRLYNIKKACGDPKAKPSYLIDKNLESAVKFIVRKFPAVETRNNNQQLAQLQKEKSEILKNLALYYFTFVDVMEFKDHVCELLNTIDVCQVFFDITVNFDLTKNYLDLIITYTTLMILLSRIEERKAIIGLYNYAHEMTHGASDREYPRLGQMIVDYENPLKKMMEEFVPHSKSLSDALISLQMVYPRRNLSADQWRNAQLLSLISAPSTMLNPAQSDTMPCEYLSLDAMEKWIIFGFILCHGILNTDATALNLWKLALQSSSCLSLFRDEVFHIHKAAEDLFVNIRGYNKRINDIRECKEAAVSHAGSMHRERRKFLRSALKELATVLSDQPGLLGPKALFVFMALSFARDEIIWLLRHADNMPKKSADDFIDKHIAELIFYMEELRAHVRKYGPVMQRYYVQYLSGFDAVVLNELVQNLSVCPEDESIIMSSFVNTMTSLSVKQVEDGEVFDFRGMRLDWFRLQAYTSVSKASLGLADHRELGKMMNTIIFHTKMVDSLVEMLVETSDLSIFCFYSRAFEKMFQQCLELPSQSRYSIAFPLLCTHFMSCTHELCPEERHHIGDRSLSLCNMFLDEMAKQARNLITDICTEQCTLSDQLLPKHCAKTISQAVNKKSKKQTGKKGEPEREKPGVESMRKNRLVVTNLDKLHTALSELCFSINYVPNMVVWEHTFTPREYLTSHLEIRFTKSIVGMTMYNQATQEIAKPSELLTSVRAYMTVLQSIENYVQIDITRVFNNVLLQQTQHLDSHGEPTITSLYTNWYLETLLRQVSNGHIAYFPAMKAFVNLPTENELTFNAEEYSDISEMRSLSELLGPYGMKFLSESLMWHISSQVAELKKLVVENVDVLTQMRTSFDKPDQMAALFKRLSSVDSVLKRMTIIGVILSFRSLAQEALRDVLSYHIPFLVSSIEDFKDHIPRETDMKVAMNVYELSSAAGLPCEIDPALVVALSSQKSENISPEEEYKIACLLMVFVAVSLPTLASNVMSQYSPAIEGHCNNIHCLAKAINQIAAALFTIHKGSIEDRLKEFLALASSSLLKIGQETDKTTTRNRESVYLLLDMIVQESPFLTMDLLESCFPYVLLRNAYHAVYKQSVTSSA
UniProt P10242: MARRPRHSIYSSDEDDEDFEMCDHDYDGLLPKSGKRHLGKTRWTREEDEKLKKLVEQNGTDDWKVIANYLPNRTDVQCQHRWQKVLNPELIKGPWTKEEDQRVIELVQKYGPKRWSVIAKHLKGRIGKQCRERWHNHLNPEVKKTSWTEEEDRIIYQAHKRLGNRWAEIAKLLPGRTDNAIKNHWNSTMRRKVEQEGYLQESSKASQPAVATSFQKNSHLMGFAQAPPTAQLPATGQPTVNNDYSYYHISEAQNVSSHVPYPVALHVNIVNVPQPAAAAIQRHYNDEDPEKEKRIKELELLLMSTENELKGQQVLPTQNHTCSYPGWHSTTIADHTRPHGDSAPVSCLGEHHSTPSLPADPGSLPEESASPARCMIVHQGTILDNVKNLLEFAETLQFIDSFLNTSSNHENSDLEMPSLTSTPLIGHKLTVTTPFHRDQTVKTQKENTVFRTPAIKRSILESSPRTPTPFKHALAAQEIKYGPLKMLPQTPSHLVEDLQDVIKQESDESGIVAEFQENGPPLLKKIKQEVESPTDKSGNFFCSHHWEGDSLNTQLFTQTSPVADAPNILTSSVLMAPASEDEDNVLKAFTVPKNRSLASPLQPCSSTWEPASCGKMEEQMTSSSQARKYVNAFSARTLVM
UniProt P52298: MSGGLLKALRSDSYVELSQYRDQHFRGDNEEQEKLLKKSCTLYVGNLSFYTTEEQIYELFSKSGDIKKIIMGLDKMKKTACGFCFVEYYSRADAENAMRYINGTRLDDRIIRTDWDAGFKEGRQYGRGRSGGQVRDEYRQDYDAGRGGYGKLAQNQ
UniProt Q15021, whole entry, looked up: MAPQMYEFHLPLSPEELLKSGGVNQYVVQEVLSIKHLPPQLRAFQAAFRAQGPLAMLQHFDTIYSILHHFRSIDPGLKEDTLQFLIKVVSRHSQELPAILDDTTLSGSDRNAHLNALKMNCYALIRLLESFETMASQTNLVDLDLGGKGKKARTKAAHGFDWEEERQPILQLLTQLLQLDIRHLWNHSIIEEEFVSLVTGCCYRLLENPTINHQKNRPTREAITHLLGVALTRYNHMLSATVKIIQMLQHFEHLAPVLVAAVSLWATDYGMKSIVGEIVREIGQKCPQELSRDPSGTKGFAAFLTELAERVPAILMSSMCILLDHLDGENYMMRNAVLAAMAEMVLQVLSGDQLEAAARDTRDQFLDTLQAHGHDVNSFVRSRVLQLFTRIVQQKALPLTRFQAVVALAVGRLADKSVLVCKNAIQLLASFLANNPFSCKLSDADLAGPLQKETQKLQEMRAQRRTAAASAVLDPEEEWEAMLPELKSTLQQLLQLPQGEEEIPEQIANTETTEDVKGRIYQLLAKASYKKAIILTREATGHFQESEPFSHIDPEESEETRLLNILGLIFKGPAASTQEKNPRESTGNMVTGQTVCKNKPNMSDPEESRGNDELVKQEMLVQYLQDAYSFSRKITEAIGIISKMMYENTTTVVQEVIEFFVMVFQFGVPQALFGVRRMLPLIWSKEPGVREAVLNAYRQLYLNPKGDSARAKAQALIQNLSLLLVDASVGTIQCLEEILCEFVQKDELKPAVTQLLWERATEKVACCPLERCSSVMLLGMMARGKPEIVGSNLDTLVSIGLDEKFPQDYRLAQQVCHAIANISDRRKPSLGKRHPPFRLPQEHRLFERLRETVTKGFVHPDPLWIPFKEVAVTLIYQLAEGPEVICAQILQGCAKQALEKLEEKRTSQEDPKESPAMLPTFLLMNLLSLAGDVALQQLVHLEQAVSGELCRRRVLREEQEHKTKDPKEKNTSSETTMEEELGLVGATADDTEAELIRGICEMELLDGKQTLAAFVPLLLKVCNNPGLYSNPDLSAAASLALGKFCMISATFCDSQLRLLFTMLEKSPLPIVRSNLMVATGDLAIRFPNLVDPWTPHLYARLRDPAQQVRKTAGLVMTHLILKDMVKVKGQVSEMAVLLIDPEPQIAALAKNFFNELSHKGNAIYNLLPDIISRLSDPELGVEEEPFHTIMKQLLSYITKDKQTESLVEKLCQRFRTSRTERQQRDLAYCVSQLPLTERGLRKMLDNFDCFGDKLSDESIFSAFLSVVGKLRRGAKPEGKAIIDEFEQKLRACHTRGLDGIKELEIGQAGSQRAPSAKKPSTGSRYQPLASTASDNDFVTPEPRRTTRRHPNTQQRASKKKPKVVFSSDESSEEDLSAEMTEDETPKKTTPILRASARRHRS
UniProt P35749, whole entry, looked up: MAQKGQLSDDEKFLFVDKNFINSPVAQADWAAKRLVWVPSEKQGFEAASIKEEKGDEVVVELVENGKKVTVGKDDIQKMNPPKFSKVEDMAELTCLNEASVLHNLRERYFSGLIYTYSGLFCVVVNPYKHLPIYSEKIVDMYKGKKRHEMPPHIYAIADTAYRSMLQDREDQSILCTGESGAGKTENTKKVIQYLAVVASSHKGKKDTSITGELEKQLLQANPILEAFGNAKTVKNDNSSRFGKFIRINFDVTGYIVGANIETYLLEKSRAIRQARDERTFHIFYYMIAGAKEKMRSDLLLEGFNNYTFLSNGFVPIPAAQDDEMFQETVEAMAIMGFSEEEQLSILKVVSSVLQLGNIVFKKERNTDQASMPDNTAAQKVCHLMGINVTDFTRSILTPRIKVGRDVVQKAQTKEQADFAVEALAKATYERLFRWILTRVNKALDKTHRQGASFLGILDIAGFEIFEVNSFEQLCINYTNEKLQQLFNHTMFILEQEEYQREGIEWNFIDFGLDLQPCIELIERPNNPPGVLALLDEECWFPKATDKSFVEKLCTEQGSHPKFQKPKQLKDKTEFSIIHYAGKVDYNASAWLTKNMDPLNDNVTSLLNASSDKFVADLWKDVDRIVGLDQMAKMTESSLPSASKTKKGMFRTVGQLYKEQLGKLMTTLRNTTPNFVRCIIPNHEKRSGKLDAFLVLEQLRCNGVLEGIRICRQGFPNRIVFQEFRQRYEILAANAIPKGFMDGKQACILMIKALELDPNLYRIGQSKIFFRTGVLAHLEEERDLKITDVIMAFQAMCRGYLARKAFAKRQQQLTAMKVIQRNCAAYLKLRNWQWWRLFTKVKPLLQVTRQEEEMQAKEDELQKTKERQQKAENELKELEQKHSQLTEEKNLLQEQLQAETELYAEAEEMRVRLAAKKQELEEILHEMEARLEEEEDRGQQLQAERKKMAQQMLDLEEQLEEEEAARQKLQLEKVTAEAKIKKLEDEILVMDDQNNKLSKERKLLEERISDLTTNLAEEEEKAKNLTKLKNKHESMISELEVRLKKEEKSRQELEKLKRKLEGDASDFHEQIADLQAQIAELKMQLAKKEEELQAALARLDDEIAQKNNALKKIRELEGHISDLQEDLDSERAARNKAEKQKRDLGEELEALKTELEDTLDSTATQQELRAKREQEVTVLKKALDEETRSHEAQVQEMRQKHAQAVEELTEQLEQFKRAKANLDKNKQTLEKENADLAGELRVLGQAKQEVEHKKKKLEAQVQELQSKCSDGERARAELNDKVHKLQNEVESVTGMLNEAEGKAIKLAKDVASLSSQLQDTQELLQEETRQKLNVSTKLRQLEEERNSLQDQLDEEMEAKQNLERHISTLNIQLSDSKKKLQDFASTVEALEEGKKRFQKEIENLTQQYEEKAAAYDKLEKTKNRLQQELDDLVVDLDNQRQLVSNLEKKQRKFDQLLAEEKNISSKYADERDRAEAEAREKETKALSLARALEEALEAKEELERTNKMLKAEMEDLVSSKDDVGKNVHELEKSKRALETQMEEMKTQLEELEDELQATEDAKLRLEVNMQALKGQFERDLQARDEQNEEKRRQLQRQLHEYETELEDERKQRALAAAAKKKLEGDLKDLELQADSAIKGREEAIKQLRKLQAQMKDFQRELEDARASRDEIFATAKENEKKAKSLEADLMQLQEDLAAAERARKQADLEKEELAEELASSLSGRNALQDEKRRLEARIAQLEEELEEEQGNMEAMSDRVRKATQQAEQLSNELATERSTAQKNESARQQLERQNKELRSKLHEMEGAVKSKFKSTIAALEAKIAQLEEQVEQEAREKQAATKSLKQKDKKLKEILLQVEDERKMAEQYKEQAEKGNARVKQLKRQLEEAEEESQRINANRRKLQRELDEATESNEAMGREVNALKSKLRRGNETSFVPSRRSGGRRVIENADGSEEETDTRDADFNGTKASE
UniProt P12829: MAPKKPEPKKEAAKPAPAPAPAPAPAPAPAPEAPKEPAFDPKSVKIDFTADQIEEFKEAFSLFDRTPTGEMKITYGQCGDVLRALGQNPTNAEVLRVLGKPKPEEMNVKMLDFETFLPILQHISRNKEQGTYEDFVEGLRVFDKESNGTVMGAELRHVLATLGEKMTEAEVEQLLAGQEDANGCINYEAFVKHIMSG
UniProt Q9BXJ9: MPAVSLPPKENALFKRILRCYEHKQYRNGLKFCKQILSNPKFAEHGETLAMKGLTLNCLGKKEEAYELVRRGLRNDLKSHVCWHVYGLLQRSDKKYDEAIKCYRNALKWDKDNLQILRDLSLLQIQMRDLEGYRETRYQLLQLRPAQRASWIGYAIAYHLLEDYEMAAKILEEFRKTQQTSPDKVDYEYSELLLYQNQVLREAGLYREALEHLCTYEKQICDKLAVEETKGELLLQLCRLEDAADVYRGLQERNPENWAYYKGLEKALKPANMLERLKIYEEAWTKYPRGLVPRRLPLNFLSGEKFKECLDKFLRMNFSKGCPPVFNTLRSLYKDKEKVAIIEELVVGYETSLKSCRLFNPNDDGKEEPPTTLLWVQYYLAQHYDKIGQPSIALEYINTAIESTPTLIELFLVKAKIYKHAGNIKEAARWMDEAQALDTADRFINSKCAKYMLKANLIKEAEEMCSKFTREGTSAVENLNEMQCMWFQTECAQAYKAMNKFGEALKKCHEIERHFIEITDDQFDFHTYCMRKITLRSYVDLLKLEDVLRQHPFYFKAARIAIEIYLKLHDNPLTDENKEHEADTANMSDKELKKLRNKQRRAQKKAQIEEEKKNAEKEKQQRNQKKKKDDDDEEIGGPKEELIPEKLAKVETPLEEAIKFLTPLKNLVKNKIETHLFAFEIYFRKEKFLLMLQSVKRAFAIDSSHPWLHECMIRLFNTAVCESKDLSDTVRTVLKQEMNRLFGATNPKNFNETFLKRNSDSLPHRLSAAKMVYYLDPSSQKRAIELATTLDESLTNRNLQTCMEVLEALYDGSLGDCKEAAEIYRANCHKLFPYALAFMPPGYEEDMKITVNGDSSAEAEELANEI

Columns and labels:
Experiment in all cases: log2 fold change, soluble protein after heating vs DMSO (PISA); higher = thermal stabilisation; K562 lysate, 10 uM; active = over 0.2 and 3.5 SD of the protein, either way, in both replicates (recomputed)
nilotinib = compound: Cc1cn(-c2cc(NC(=O)c3ccc(C)c(Nc4nccc(-c5cccnc5)n4)c3)cc(C(F)(F)F)c2)cn1 [nilotinib]
Method in brief: (§1)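 Pellets of K562 cells were dounce-homogenised in PBS pH 7.4 with 1 mM MgCl2, and the crude extract was held at 1 mg/mL protein for a 30 min treatment with 10 μM compound. Aliquots were heated for 3 min over 48°C-58°C and pooled before NP-40 was added to 0.5% at 4°C. The supernatant from 21,000xg for 90 min was quantified by TMTpro 16plex LC-MS/MS with channel sums equalised. Values are reported from duplicates as log-two fold change in thermal stability relative to solvent controls.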

[1] = compound: Cc1nc(Nc2n[nH]c3c2CN(C(=O)N[C@H](CN(C)C)c2ccccc2)C3(C)C)c2sccc2n1
Method in brief: as §1

dasatinib = compound: Cc1nc(Nc2ncc(C(=O)Nc3c(C)cccc3Cl)s2)cc(N2CCN(CCO)CC2)n1 [dasatinib]
Method in brief: as §1

[2] = compound: Cc1ncc(-c2ccnc(Nc3ccc(S(C)(=O)=O)cc3)n2)n1C(C)C
Method in brief: as §1

[3] = compound: Cn1cc(-c2ccc3c(c2)CCN3C(=O)Cc2cccc(C(F)(F)F)c2)c2c(N)ncnc21
Method in brief: as §1

quisinostat = compound: Cn1cc(CNCC2CCN(c3ncc(C(=O)NO)cn3)CC2)c2ccccc21 [quisinostat]
Method in brief: as §1

tipifarnib = compound: Cn1cncc1[C@@](N)(c1ccc(Cl)cc1)c1ccc2c(c1)c(-c1cccc(Cl)c1)cc(=O)n2C [tipifarnib]
Method in brief: as §1

[4] = compound: NC(=O)Nc1cc(-c2cccc(F)c2)sc1C(=O)N[C@H]1CCCNC1
Method in brief: as §1

[5] = compound: NC(=O)c1cnc(N[C@@H]2CCCC[C@@H]2N)nc1Nc1cccc(-n2nccn2)c1
Method in brief: as §1

[6] = compound: NC1(c2ccc(-c3nc4ccn5c(=O)[nH]nc5c4cc3-c3ccccc3)cc2)CCC1
Method in brief: as §1

[7] = compound: NCC(=O)Nc1ccc(-n2nc(C(F)(F)F)cc2-c2ccc3c(ccc4ccccc43)c2)cc1
Method in brief: as §1

vorinostat = compound: O=C(CCCCCCC(=O)Nc1ccccc1)NO [vorinostat]
Method in brief: as §1

silmitasertib = compound: O=C(O)c1ccc2c(c1)nc(Nc1cccc(Cl)c1)c1ccncc12 [silmitasertib]
Method in brief: as §1

[8] = compound: O=C1NC(=O)C(c2cnc3ccccn23)=C1c1cn2c3c(cc(F)cc13)CN(C(=O)N1CCCCC1)CC2
Method in brief: as §1

entospletinib = compound: c1cn2cc(-c3ccc4cn[nH]c4c3)nc(Nc3ccc(N4CCOCC4)cc3)c2n1 [entospletinib]
Method in brief: as §1

Measured: log2 fold change

MYBBP1A isoform 2 (UniProt Q9BQG0)
inactive: nilotinib -0.011 | [1] -0.01 | dasatinib -0.054 | [2] 0.006 | [3] 0.005 | quisinostat -0.048 | tipifarnib 0.013 | [4] 0.024 | [5] 0.003 | [6] -0.01 | [7] -0.034 | vorinostat -0.072 | silmitasertib 0.041 | [8] 0.026 | entospletinib 0.001

MYO9A isoform 4 (UniProt B2RTY4)
inactive: nilotinib 0.059 | [1] -0.044 | dasatinib -0.176 | [2] 0 | [3] 0.052 | quisinostat -0.074 | tipifarnib -0.005 | [4] 0.112 | [5] 0.039 | [6] -0.112 | [7] -0.051 | vorinostat 0.084 | silmitasertib -0.019 | [8] -0.03

NCOR2 (UniProt C9J0Q5)
active: vorinostat -0.27
inactive: nilotinib 0.09 | [1] -0.034 | dasatinib -0.082 | [2] 0.043 | [3] -0.015 | quisinostat -0.034 | tipifarnib -0.045 | [4] 0.047 | [5] 0.025 | [6] 0.022 | [7] 0.093 | silmitasertib -0.016 | [8] 0.011 | entospletinib -0.074

NCOA2 (UniProt Q15596)
inactive: nilotinib -0.05 | [1] -0.148 | dasatinib -0.016 | [2] -0.084 | [3] -0.076 | quisinostat -0.023 | tipifarnib 0.111 | [4] 0.014 | [5] 0.024 | [6] 0.009 | [7] 0.133 | vorinostat -0.04 | silmitasertib -0.104 | [8] 0.015 | entospletinib -0.042

MYL6 isoform 2 (UniProt P60660)
inactive: nilotinib 0.106 | [1] -0.023 | dasatinib -0.023 | [2] 0.017 | [3] -0.056 | quisinostat 0.083 | tipifarnib 0.088 | [4] 0.071 | [5] -0.006 | [6] 0 | [7] 0 | vorinostat -0.111 | silmitasertib 0.015 | [8] 0.055 | entospletinib 0.021

NBDY, A0A0U1RRE5
inactive: nilotinib -0.199 | [1] -0.11 | dasatinib 0.098 | [2] 0.112 | [3] -0.127 | quisinostat -0.069 | tipifarnib 0.102 | [4] 0.168 | [5] 0.006 | [6] -0.103 | [7] -0.038 | vorinostat 0.189 | silmitasertib -0.171 | [8] 0.131

NCKAP1 isoform 2 (UniProt Q9Y2A7)
inactive: nilotinib -0.007 | [1] 0.002 | dasatinib -0.004 | [2] 0.022 | [3] 0.006 | quisinostat -0.043 | tipifarnib 0.013 | [4] -0.007 | [5] -0.001 | [6] 0.021 | [7] -0.029 | vorinostat -0.033 | silmitasertib 0.005 | [8] 0.01 | entospletinib 0.008

NCAPG2 (UniProt Q86XI2)
active: vorinostat -0.598
inactive: nilotinib -0.002 | [1] -0.035 | dasatinib -0.078 | [2] -0.024 | [3] -0.015 | quisinostat -0.092 | tipifarnib 0.003 | [4] 0.061 | [5] 0.045 | [6] -0.031 | [7] 0.002 | silmitasertib 0.015 | [8] -0.016 | entospletinib 0.009

MYB isoform 4 (UniProt P10242)
inactive: nilotinib 0.1 | [1] 0.056 | dasatinib 0 | [2] -0.042 | [3] 0.02 | quisinostat -0.045 | tipifarnib -0.227 | [4] 0.136 | [5] 0.014 | [6] -0.017 | [7] -0.01 | vorinostat 0.002 | silmitasertib -0.013 | [8] 0.011 | entospletinib 0.051

MYH14 isoform 2 (UniProt Q7Z406)
inactive: nilotinib -0.038 | [1] 0.041 | dasatinib 0 | [2] 0.003 | [3] -0.027 | quisinostat -0.042 | tipifarnib -0.026 | [4] -0.037 | [5] -0.016 | [6] -0.008 | [7] 0.043 | vorinostat 0.056 | silmitasertib 0.003 | [8] -0.002 | entospletinib 0.013

MYL6 (UniProt P60660)
inactive: nilotinib 0.003 | [1] 0.006 | dasatinib 0.023 | [2] 0.01 | [3] 0.018 | quisinostat -0.016 | tipifarnib 0.032 | [4] 0.002 | [5] -0.033 | [6] -0.019 | [7] -0.113 | vorinostat 0.072 | silmitasertib 0.001 | [8] 0.007 | entospletinib -0.044

NCBP2 (UniProt P52298)
inactive: nilotinib -0.031 | [1] 0.042 | dasatinib 0.05 | [2] -0.025 | [3] 0.033 | quisinostat 0.033 | tipifarnib -0.008 | [4] 0.043 | [5] -0.001 | [6] -0.032 | [7] -0.024 | vorinostat -0.013 | silmitasertib 0.047 | [8] -0.024 | entospletinib -0.008

N4BP1 (UniProt O75113)
inactive: nilotinib -0.019 | [1] 0 | dasatinib -0.047 | [2] 0.002 | [3] -0.004 | quisinostat -0.048 | tipifarnib -0.015 | [4] 0.044 | [5] 0.042 | [6] 0.019 | [7] 0.003 | vorinostat -0.107 | silmitasertib -0.015 | [8] 0.049 | entospletinib 0

Two successive records already listed, quoted:
NCBP2 (UniProt P52298)
inactive: nilotinib -0.031 | [1] 0.042 | dasatinib 0.05 | [2] -0.025 | [3] 0.033 | quisinostat 0.033 | tipifarnib -0.008 | [4] 0.043 | [5] -0.001 | [6] -0.032 | [7] -0.024 | vorinostat -0.013 | silmitasertib 0.047 | [8] -0.024 | entospletinib -0.008

N4BP1 (UniProt O75113)
inactive: nilotinib -0.019 | [1] 0 | dasatinib -0.047 | [2] 0.002 | [3] -0.004 | quisinostat -0.048 | tipifarnib -0.015 | [4] 0.044 | [5] 0.042 | [6] 0.019 | [7] 0.003 | vorinostat -0.107 | silmitasertib -0.015 | [8] 0.049 | entospletinib 0

Additional records follow:

NBEAL2 (UniProt Q6ZNJ1)
inactive: nilotinib 0.031 | [1] -0.008 | dasatinib -0.069 | [2] 0.036 | [3] 0.029 | quisinostat -0.077 | tipifarnib -0.017 | [4] 0.033 | [5] 0.014 | [6] 0.06 | [7] -0.025 | silmitasertib 0.047 | [8] 0.02 | entospletinib 0.026
active: vorinostat -0.341

NCAPD2 (UniProt Q15021)
active: vorinostat -0.332
inactive: nilotinib 0.006 | [1] 0.01 | dasatinib -0.037 | [2] -0.001 | [3] 0.031 | quisinostat -0.064 | tipifarnib -0.019 | [4] 0.044 | [5] 0.003 | [6] -0.009 | [7] -0.01 | silmitasertib 0.01 | [8] -0.005 | entospletinib -0.001

MYH11 isoform 2 (UniProt P35749)
inactive: nilotinib -0.072 | [1] -0.022 | dasatinib -0.043 | [2] -0.011 | [3] 0.014 | quisinostat 0.099 | tipifarnib -0.045 | [4] -0.029 | [5] 0.013 | [6] -0.032 | [7] 0.014 | vorinostat 0.042 | silmitasertib 0.02 | [8] -0.005 | entospletinib 0.013

MYL4 (UniProt P12829)
inactive: nilotinib 0.016 | [1] 0.008 | dasatinib 0.002 | [2] 0.027 | [3] -0.031 | quisinostat 0.004 | tipifarnib 0.001 | [4] -0.047 | [5] -0.04 | [6] -0.03 | [7] -0.036 | vorinostat 0.095 | silmitasertib -0.042 | [8] 0.026 | entospletinib -0.085

NAPG (UniProt Q99747)
inactive: nilotinib 0.064 | [1] -0.009 | dasatinib -0.01 | [2] -0.001 | [3] 0.001 | quisinostat 0.035 | tipifarnib 0.019 | [4] -0.012 | [5] 0.001 | [6] 0.027 | [7] 0.01 | vorinostat -0.011 | silmitasertib -0.034 | [8] 0.019 | entospletinib 0.009

NADSYN1 (UniProt Q6IA69)
inactive: nilotinib -0.054 | [1] 0.101 | dasatinib 0.017 | [2] 0.036 | [3] -0.011 | quisinostat 0.027 | tipifarnib -0.005 | [4] -0.038 | [5] -0.009 | [6] -0.006 | [7] -0.01 | vorinostat 0.054 | silmitasertib -0.011 | [8] -0.034 | entospletinib -0.057

NAA10 (UniProt P41227)
inactive: nilotinib 0.015 | [1] -0.01 | dasatinib -0.026 | [2] -0.001 | [3] -0.01 | quisinostat 0.067 | tipifarnib 0.034 | [4] -0.005 | [5] 0.002 | [6] 0.019 | [7] -0.002 | vorinostat -0.029 | silmitasertib -0.018 | [8] -0.023 | entospletinib -0.004

NAA15 (UniProt Q9BXJ9)
inactive: nilotinib -0.007 | [1] 0.006 | dasatinib -0.023 | [2] -0.004 | [3] 0.009 | quisinostat 0.023 | tipifarnib 0.013 | [4] -0.001 | [5] 0.008 | [6] -0.006 | [7] -0.011 | vorinostat -0.139 | silmitasertib 0.029 | [8] 0.014 | entospletinib 0
